According to patent US6465396B1, “Method to promote growth of a plant” (Nara Institute of Science and Technology, priority 1999, dated 2002):

System: rice plant bodies
Conditions: 5 ml of 1.4 mM sodium formate (pH7), 25° C., dark, GC-MS, FIG. 11

Structure (SMILES) | [13C] CO2 compared to total carbon dioxide [%]
O=C[O-].[Na+] [[^12C] formic acid, [^12C] sodium formate] | 9
O=[13CH][O-].[Na+] [[^13C] formic acid, [^13C] sodium formate] | 1
